Laboratory results: the supplement of paper PMC10849652
Some of the results follow.

Protein sequences, listed by entry. Tags and fused reporters are not part of them. Lines headed by an entry give the natural chain unless they say otherwise; changes in a name come on top.
UniProt Q969P0: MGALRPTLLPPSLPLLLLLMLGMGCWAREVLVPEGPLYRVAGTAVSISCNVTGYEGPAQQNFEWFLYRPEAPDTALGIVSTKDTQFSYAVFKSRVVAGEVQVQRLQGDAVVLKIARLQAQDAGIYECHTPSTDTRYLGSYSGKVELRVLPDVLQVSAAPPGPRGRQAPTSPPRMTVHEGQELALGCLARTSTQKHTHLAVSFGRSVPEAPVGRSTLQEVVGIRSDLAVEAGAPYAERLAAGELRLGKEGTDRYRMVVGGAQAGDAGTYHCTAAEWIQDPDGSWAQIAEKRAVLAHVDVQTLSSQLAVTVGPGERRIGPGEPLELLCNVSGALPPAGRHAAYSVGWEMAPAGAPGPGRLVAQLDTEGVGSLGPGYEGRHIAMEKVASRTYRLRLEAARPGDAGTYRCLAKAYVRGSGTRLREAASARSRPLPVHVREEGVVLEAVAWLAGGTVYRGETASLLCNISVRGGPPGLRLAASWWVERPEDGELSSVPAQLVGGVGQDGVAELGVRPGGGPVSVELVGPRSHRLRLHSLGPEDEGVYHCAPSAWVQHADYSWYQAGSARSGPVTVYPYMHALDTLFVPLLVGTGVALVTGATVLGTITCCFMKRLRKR
UniProt P51617, whole entry, looked up: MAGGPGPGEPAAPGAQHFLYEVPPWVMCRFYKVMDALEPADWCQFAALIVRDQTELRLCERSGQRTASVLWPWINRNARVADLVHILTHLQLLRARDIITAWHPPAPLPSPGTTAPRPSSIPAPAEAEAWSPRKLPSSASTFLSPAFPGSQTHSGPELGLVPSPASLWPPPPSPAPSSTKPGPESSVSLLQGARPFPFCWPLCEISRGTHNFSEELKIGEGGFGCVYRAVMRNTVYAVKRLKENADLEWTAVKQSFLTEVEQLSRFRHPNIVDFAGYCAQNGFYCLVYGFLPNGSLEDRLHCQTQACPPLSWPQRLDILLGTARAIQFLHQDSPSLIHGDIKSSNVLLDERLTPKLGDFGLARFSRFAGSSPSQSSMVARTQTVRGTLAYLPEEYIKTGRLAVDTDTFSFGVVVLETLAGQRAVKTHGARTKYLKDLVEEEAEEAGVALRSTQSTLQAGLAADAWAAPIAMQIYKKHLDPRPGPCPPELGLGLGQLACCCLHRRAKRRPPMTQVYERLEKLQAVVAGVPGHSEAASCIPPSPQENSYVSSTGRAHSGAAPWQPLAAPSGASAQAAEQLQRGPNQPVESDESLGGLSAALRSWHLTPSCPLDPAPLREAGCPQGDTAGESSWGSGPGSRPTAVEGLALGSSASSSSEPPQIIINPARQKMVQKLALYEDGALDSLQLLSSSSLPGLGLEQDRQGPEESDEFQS
UniProt Q8NBZ0, whole entry, looked up: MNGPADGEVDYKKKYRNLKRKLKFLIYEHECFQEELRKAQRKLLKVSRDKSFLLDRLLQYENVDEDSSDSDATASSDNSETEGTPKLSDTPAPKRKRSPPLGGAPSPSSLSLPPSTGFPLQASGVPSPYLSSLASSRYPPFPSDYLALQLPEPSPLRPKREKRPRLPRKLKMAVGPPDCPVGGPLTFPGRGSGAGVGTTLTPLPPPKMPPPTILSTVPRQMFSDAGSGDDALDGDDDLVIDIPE
UniProt Q9H0H0, whole entry, looked up: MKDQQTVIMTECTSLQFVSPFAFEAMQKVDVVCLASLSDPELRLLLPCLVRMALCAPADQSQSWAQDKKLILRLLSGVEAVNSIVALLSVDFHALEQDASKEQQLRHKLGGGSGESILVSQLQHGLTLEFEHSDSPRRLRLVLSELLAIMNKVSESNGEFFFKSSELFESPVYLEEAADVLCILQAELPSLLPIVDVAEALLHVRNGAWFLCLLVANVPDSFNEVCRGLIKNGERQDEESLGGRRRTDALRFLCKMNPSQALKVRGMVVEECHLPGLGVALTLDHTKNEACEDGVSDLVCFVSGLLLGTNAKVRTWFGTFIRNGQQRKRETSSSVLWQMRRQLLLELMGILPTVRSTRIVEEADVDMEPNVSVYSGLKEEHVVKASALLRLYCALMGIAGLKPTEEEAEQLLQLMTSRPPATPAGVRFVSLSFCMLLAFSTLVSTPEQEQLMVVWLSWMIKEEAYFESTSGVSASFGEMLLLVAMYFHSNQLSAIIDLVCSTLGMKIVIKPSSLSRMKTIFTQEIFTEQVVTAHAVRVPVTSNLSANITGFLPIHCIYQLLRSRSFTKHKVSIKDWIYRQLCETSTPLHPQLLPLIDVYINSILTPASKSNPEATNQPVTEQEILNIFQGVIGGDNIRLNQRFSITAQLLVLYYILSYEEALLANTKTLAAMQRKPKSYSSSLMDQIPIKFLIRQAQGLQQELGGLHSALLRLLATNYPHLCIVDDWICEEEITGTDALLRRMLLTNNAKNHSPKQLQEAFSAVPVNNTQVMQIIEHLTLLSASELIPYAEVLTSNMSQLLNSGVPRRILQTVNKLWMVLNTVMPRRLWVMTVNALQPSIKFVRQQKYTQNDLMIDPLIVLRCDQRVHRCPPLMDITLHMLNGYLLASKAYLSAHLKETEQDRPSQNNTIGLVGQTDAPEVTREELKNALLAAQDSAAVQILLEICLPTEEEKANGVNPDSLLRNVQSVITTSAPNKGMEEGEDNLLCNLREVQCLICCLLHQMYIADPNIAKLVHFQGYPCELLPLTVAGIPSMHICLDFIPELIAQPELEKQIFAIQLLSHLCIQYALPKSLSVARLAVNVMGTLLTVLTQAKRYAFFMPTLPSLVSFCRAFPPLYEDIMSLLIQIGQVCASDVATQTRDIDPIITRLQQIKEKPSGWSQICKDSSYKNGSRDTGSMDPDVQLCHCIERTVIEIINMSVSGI
UniProt P01877, whole entry, looked up: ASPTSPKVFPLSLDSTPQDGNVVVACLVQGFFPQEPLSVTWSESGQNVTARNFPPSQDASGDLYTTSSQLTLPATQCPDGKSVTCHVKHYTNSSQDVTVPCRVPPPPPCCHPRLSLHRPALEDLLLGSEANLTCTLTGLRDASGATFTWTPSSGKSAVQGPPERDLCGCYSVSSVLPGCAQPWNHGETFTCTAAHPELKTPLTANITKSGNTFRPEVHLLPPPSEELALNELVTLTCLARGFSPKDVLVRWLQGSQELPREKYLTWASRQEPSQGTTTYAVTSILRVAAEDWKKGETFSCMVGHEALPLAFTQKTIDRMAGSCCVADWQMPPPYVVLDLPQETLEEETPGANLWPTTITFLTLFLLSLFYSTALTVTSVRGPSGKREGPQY
UniProt Q8NFU5: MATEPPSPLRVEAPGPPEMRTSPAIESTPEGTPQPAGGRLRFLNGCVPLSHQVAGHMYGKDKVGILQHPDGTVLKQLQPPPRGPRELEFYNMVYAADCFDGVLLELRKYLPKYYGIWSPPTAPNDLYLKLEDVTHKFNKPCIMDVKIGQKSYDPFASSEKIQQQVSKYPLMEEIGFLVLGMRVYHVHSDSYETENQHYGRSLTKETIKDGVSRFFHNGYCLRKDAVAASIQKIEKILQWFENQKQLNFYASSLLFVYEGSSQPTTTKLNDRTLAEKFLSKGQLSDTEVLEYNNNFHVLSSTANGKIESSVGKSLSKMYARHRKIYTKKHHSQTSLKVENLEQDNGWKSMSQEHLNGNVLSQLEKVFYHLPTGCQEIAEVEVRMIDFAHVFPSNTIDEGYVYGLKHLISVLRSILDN
UniProt P14316: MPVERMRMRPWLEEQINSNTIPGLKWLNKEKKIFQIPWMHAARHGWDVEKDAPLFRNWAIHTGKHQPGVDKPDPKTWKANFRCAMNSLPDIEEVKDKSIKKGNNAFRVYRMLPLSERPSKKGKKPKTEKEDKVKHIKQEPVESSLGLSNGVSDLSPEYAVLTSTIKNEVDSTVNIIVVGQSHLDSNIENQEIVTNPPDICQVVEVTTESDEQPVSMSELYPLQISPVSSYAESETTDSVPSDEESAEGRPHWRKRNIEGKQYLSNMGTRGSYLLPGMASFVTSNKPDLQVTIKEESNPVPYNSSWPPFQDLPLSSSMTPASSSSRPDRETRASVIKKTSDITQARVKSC
UniProt P17181: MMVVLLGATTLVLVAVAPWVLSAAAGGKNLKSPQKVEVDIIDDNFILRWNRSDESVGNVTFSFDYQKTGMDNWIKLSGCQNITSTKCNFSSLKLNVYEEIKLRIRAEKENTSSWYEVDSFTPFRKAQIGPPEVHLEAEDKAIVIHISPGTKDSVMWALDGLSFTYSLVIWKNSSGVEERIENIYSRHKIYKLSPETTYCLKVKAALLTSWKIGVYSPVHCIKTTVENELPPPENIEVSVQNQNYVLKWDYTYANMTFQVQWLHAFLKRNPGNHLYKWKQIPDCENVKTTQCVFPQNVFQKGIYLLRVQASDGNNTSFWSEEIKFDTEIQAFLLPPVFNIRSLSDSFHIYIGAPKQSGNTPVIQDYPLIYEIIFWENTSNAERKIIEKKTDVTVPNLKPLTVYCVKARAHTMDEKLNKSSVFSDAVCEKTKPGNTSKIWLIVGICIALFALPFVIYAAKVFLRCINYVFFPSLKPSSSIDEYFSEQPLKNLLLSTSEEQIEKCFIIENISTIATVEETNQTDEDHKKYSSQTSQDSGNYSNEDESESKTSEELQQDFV
UniProt Q9NQX7: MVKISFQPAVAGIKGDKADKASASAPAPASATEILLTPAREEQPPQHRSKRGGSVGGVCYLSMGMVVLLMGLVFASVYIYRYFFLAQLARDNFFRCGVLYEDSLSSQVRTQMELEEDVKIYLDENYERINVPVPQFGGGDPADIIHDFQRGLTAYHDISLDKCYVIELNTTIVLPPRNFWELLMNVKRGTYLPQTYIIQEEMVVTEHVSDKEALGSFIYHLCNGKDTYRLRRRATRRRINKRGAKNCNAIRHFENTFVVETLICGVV
UniProt O14713: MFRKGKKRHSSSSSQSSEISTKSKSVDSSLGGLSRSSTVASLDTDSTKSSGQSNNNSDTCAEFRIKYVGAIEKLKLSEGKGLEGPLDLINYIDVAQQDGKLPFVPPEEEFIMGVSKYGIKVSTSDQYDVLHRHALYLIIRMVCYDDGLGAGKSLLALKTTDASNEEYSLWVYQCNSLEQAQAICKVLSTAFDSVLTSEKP
UniProt Q96G21: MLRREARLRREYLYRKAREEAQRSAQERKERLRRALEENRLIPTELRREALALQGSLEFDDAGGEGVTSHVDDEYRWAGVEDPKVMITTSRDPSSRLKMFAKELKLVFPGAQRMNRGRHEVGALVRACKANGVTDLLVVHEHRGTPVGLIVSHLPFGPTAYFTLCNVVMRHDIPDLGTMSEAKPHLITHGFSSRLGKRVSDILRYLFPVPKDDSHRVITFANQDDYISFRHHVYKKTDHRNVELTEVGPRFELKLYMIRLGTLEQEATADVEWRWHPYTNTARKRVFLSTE
UniProt P50213: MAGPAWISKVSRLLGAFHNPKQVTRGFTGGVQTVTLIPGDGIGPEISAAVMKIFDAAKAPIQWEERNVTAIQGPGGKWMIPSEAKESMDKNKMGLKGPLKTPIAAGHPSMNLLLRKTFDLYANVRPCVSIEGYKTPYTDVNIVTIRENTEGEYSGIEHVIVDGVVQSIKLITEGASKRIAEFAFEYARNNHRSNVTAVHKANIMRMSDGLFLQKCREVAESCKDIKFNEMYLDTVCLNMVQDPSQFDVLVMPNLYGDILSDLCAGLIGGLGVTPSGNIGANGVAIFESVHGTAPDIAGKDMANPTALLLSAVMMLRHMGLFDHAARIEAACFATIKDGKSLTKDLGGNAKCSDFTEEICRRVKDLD
UniProt Q9UNL4, whole entry, looked up: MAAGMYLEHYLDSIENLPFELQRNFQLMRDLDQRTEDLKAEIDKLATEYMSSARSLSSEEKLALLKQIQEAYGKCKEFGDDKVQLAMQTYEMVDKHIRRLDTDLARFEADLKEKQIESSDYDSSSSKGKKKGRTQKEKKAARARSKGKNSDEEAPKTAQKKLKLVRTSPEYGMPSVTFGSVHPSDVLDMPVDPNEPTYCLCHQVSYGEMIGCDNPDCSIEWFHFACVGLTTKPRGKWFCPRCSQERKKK
UniProt Q13352: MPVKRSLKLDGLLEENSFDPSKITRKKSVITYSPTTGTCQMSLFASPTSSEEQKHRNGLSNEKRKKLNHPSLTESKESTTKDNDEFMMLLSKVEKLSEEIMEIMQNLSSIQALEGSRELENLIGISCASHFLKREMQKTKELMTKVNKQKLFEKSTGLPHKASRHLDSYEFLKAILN
UniProt Q13478: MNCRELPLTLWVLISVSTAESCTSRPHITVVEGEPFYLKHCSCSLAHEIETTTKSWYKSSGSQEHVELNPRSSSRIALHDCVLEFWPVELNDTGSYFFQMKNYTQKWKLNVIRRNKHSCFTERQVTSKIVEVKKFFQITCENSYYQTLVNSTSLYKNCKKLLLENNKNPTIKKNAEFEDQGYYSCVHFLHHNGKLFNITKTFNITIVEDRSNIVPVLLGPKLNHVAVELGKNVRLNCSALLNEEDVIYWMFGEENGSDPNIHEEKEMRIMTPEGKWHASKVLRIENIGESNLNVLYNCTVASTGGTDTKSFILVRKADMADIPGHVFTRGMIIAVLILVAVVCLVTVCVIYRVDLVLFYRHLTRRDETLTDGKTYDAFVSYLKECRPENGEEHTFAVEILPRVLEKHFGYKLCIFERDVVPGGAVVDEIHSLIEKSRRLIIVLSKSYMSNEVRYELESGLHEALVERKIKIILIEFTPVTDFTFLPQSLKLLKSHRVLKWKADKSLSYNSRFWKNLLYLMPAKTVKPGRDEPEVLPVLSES

Tests used:
Experiment in all cases: log2 fold change, soluble protein after heating vs DMSO (PISA); higher = thermal stabilisation; K562 cells, 10 uM, 30 min; active = over 0.2 and 3.5 SD of the protein, either way, in both replicates (recomputed)
[1] = compound: CC[C@@H]1C(=O)N(C)c2cnc(Nc3ccc(C(=O)NC4CCN(C)CC4)cc3OC)nc2N1C1CCCC1
Summary of the method: (§1)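 Soluble protein was defined as the supernatant after 21,000xg for 90 min. It came from K562 cells at 2×10^6 cells/mL given 10 μM compound for 30 min, heated in aliquots for 3 min across 48°C-58°C, pooled, and extracted in PBS with 0.5% NP-40 at 4°C, and was quantified by TMTpro 16plex LC-MS/MS with equalised channel sums. Thermal stability against control samples, from duplicates, is reported as log2 fold change.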

volasertib = compound: CC[C@@H]1C(=O)N(C)c2cnc(Nc3ccc(C(=O)N[C@H]4CC[C@H](N5CCN(CC6CC6)CC5)CC4)cc3OC)nc2N1C(C)C [volasertib]
Summary of the method: as §1

epoxomicin = compound: CC[C@H](C)[C@@H](C(=O)N[C@@H]([C@@H](C)O)C(=O)N[C@@H](CC(C)C)C(=O)[C@]1(CO1)C)NC(=O)[C@H]([C@@H](C)CC)N(C)C(=O)C [epoxomicin]
Summary of the method: as §1

[2] = compound: CCn1c(C(=O)N(C2CC2)C2CC2)cc2c3c(ncn3C)c(Nc3cc(C)n(C)n3)nc21
Summary of the method: as §1

[3] = compound: CCn1cc(-c2ccnc3[nH]c(-c4cccc(CN(C)C)c4)cc23)c(-c2ccc(NC(=O)N(C)C)cc2)n1
Summary of the method: as §1

[4] = compound: CN(C)CC(=O)Nc1ccc2[nH]c(=O)c3ccccc3c2c1
Summary of the method: as §1

rosiglitazone = compound: CN(CCOC1=CC=C(C=C1)C[C@H]2C(=O)NC(=O)S2)C3=CC=CC=N3 (racemic) [rosiglitazone]
Summary of the method: as §1

[5] = compound: CN1C2=C(C3=C1C(=O)N(N=C3)CC4=CC(=CC=C4)N)SC(=C2)S(=O)C
Summary of the method: as §1

[6] = compound: CN1CCC(CNc2ccc3ncc(-c4cccc(OC(F)(F)F)c4)n3n2)CC1
Summary of the method: as §1

saracatinib = compound: CN1CCN(CCOc2cc(OC3CCOCC3)c3c(Nc4c(Cl)ccc5c4OCO5)ncnc3c2)CC1 [saracatinib]
Summary of the method: as §1

alvocidib = compound: CN1CC[C@H](c2c(O)cc(O)c3c(=O)cc(-c4ccccc4Cl)oc23)[C@H](O)C1 [alvocidib]
Summary of the method: as §1

Tubastatin A = compound: CN1CCc2c(c3ccccc3n2Cc2ccc(C(=O)NO)cc2)C1 [Tubastatin A]
Summary of the method: as §1

[7] = compound: CNC(=O)C1=CC=CC=C1NC2=NC(=NC=C2Cl)NC3=C(C=C(C=C3)N4CCOCC4)OC
Summary of the method: as §1

defactinib = compound: CNC(=O)c1ccc(Nc2ncc(C(F)(F)F)c(NCc3nccnc3N(C)S(C)(=O)=O)n2)cc1 [defactinib]
Summary of the method: as §1

rucaparib = compound: CNCc1ccc(-c2[nH]c3cc(F)cc4c3c2CCNC4=O)cc1 [rucaparib]
Summary of the method: as §1

[8] = compound: CNc1nc(-c2ccc3c(N)n[nH]c3c2)cc(N2C[C@@H](C(=O)NC3CCCCC3)CC[C@H]2C)n1
Summary of the method: as §1

encorafenib = compound: COC(=O)N[C@@H](C)CNc1nccc(-c2cn(C(C)C)nc2-c2cc(Cl)cc(NS(C)(=O)=O)c2F)n1 [encorafenib]
Summary of the method: as §1

[9] = compound: COC(=O)[C@H](CCSC)NC(=O)C1=C(C=C(C=C1)NC[C@H](CS)N)C2=CC=CC=C2
Summary of the method: as §1

sotrastaurin = compound: CN1CCN(c2nc(C3=C(c4c[nH]c5ccccc45)C(=O)NC3=O)c3ccccc3n2)CC1 [sotrastaurin]
Summary of the method: as §1

[10] = compound: CC[C@H](C)N1C=C(C2=C(C=C(C=C21)C3=CN=C(C=C3)N4CCNCC4)C(=O)NCC5=C(C=C(NC5=O)C)C)C
Summary of the method: as §1

Measured: log2 fold change

IGSF8 (UniProt Q969P0)
inactive: [1] 0.037 | volasertib 0.02 | epoxomicin -0.025 | [2] 0.064 | [3] -0.125 | [4] -0.032 | rosiglitazone -0.015 | [5] -0.047 | [6] -0.299 | saracatinib -0.006 | alvocidib 0.053 | Tubastatin A 0.18 | [7] 0.02 | defactinib -0.01 | rucaparib 0 | [8] 0.128 | encorafenib -0.053 | [9] 0.021

IRF2BP1 (UniProt Q8IU81)
inactive: [1] -0.06 | volasertib 0.006 | [2] -0.025 | rosiglitazone -0.159 | [5] -0.016 | saracatinib -0.071 | sotrastaurin -0.118 | alvocidib 0.141 | Tubastatin A 0.012 | [7] 0.084 | rucaparib -0.013 | [8] -0.062 | encorafenib 0.08

IRAK1 (UniProt P51617)
inactive: [1] -0.265 | [10] -0.016 | epoxomicin 0.073 | [2] -0.138 | [3] -0.006 | rosiglitazone -0.078 | [6] -0.108 | sotrastaurin -0.122 | [7] 0.023 | rucaparib 0.362 | encorafenib 0.11

INO80E (UniProt Q8NBZ0)
inactive: [1] 0.009 | volasertib 0.081 | [2] -0.151 | [3] 0.224 | rosiglitazone -0.129 | [6] -0.183 | Tubastatin A 0.058 | [7] 0.062 | rucaparib -0.008 | encorafenib -0.101

INTS2 (UniProt Q9H0H0)
inactive: [1] -0.14 | volasertib 0.068 | epoxomicin 0.162 | [2] -0.085 | [3] -0.051 | [4] -0.057 | [6] 0.041 | sotrastaurin -0.227 | alvocidib -0.487 | Tubastatin A 0.02 | [7] -0.068 | defactinib -0.044 | rucaparib 0.197 | encorafenib -0.015 | [9] -0.125

INIP (UniProt Q9NRY2)
inactive: [1] 0.15 | volasertib 0.053 | [10] -0.007 | epoxomicin 0.504 | [4] 0.057 | sotrastaurin 0.035 | defactinib -0.073 | rucaparib -0.142 | encorafenib -0.031 | [9] -0.022

INTS8 (UniProt Q75QN2)
inactive: [1] 0.258 | volasertib -0.055 | [10] -0.025 | [2] 0.016 | [3] -0.062 | [4] -0.024 | rosiglitazone -0.228 | [5] -0.041 | [6] 0.017 | saracatinib -0.01 | sotrastaurin 0.012 | alvocidib 0 | Tubastatin A 0.097 | [7] 0.039 | defactinib -0.114 | rucaparib -0.198 | [8] -0.005 | encorafenib -0.049 | [9] 0.014

IMPDH2 (UniProt H0Y4R1)
inactive: volasertib 0.214 | [10] -0.045 | epoxomicin 0.081 | [2] -0.08 | [3] 0.077 | [4] 0.016 | rosiglitazone -0.04 | [6] -0.014 | Tubastatin A 0.144 | [7] 0.04 | defactinib 0.004 | [9] -0.009

IGKC (UniProt P01834)
inactive: [1] -0.039 | [10] 1.32 | [2] -0.341 | [4] 0.233 | rosiglitazone -0.021 | sotrastaurin -0.123 | Tubastatin A 0.013 | [7] -0.198 | defactinib 0.109 | rucaparib 0.012 | encorafenib -0.121 | [9] -0.001

ITPR3 (UniProt Q14573)
inactive: [1] -0.121 | [4] -0.042 | alvocidib -0.045 | defactinib 0 | rucaparib -0.003 | encorafenib -0.134 | [9] 0.213

INPP5K (UniProt Q9BT40)
inactive: [1] -0.214 | [10] -0.012 | epoxomicin -0.206 | [2] -0.059 | [3] -0.083 | [4] 0.059 | [5] 0.217 | [6] -0.429 | saracatinib 0.016 | sotrastaurin 0.022 | alvocidib 0.025 | Tubastatin A -0.005 | [7] -0.061 | defactinib 0.072 | rucaparib 0.011 | [8] 0.297 | encorafenib 0.033 | [9] -0.027

IGHA2 (UniProt P01877)
inactive: [10] 1.73

IPMK (UniProt Q8NFU5)
inactive: [10] 0.112

IRF2 (UniProt P14316)
inactive: volasertib -0.247 | [10] -0.05 | [2] -0.036 | [3] -0.027 | [4] 0.003 | rosiglitazone 0.031 | [6] -0.015 | sotrastaurin -0.097 | alvocidib 0.111 | Tubastatin A 0.1 | [7] -0.092 | defactinib -0.149 | [9] -0.004

IMPA1 (UniProt E5RIP7)
inactive: rosiglitazone 0.011

IDUA (UniProt P35475)
inactive: volasertib -0.413 | epoxomicin -0.057 | [3] -0.053 | [6] -0.272

IGKV3D-11, A0A0A0MRZ8
inactive: [10] 0.856

IFNAR1 (UniProt P17181)
inactive: volasertib -0.243 | [10] 0.016 | epoxomicin -0.088 | [3] -0.035 | [4] -0.003 | rosiglitazone 0.066 | [5] -0.2 | [6] -0.083 | saracatinib 0.134 | sotrastaurin 0.065 | alvocidib 0.146 | Tubastatin A 0.007 | defactinib -0.042 | [8] 0.033 | [9] 0.001

ITM2C (UniProt Q9NQX7)
inactive: volasertib -0.312 | [10] 0.049 | epoxomicin -0.149 | [3] -0.104 | [4] -0.046 | [5] 0.125 | [6] 0.218 | saracatinib -0.007 | sotrastaurin -0.072 | [7] 0 | defactinib 0.039 | [8] -0.003 | [9] -0.045

ITGB1BP1 (UniProt O14713)
inactive: epoxomicin 0.006 | [2] -0.125 | rosiglitazone 0.097 | [5] -0.232 | saracatinib -0.086 | Tubastatin A 0.102 | [7] 0.001 | [8] -0.148

IMP4 (UniProt Q96G21)
inactive: [3] 0.163 | [5] 0.022 | [6] 0.273 | saracatinib -0.026 | sotrastaurin -0.024 | [8] 0.06

IKZF1 isoform 2 (UniProt Q13422)
inactive: [10] -0.011 | [4] -0.043 | sotrastaurin 0.049 | Tubastatin A -0.123 | [7] 0.05 | defactinib -0.106 | [9] -0.02

INF2 (UniProt Q27J81)
inactive: [10] -0.058 | epoxomicin 0.128 | rosiglitazone 0.057 | [5] 0.363 | saracatinib -0.127 | sotrastaurin -0.124 | alvocidib 0.095 | [8] -0.057

IFT27 (UniProt Q9BW83)
inactive: volasertib 0.191 | [2] -0.033 | [3] -0.19 | [5] -0.052 | [6] -0.074 | saracatinib 0.074 | alvocidib -0.098 | [7] -0.042 | [8] -0.268

IDH3A isoform 2 (UniProt P50213)
inactive: [10] -0.056 | Tubastatin A 0.138 | [7] -0.117

ING4 (UniProt Q9UNL4)
inactive: epoxomicin 0.215 | [2] 0.031 | [5] 0.054 | saracatinib -0.008 | Tubastatin A -0.233 | [7] 0.209 | [8] 0.046

ITGB3BP isoform 5 (UniProt Q13352)
inactive: [10] 0.039 | [2] 0.075 | [7] -0.045

IL18R1 (UniProt Q13478)
inactive: volasertib 0.142 | [10] 0.014 | [2] -0.236 | [3] -0.014 | rosiglitazone 0.189 | [5] 0.032 | [6] -0.001 | saracatinib 0.036 | sotrastaurin -0.088 | [7] 0.413 | [8] -0.005

Two consecutive records already listed:
ING4 (UniProt Q9UNL4)
inactive: epoxomicin 0.215 | [2] 0.031 | [5] 0.054 | saracatinib -0.008 | Tubastatin A -0.233 | [7] 0.209 | [8] 0.046

ITGB3BP isoform 5 (UniProt Q13352)
inactive: [10] 0.039 | [2] 0.075 | [7] -0.045

Next part.

ITGA2B (UniProt P08514)
inactive: volasertib 0.134 | [10] -0.211 | epoxomicin -0.089 | [3] -0.173 | [4] 0.067 | [5] 0.117 | [6] -0.07 | saracatinib 0.025 | sotrastaurin -0.03 | Tubastatin A -0.043 | [7] 0.037 | defactinib 0.059 | [8] -0.036 | [9] 0.058
